AC50 data for 66 compounds are collected here from PubChem BioAssay AID662 (National Center for Advancing Translational Sciences (NCATS), 2007).

SMILES strings stand for the structures. The list shows a part of the results. Shown are side measurements of this screen, not its main read-out; they come without a call. Most of these compounds were active or inconclusive in the main read-out, so they are no random draw. The note in brackets gives the kind of curve behind each potency; many fits are weak.

In general, AC50 refers to the midpoint of the concentration-response curve, whichever way the signal moves.

This assay in a line: Cell signaling CRE-BLA (Fsk stim). The note with it: CHO CRE-bla reporter (cAMP response element driving beta-lactamase), forskolin EC10, beta-lactamase ratio; measured here: 460 nm blue channel. Put shortly: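 CRE-bla CHO reporter cells treated with compound titration plus EC10 NKH 477 (water-soluble forskolin), incubated 3 h at 37 °C; CCF4 loading 2 h at room temperature, 460/530 nm emission ratio read, AC50 values derived for positive or negative modulators.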
`Cc1cc2ncn(CCOc3ccccc3C#N)c2cc1C`: the AC50 was 0.316 µM [rising, partial curve, poor fit].
Consider `Cc1ccc(C2CC(C(F)(F)F)n3nc(C(=O)NCCN4CCOCC4)cc3N2)cc1` (stereo unspecified), for which the AC50 was 0.0126 µM [falling, partial curve, poor fit].
`O=c1[nH]c(-c2ccccc2)c(-c2ccccc2)[nH]1`: the concentration at half-maximal activity (AC50) is 0.126 µM [rising, full curve].
As to `CCOC(=O)c1ccc(Oc2nc(SC)nc(N(C)C)n2)cc1`, the AC50 was 0.00316 µM [falling, full curve, poor fit].
In the case of `COc1ccc(CNc2nc(-c3ccc(N(C)C)cc3)nc3ccccc23)c(OC)c1`, the AC50 is 10 µM [rising, partial curve].
For `COc1ccc(Nc2ncc3c(n2)CC(c2ccc(OC)cc2)CC3=O)cc1` (stereo unspecified), the AC50 is 10 µM [rising, single point].
The same measure for `COC(=O)[C@@]1(Cc2ccc(OC)cc2)[C@H]2c3cc(C(=O)N(C)C)n(Cc4ccccn4)c3C[C@H]2CN1C(=O)c1ccccc1`: 6.31 µM [rising, partial curve]; for `COCCNC(=O)CSc1nc(-c2ccc(OC)c(OC)c2)cc(C(F)(F)F)n1`: 6.31 µM [rising, partial curve].
For `COc1ccc(-c2nc(C#N)c(N3CCOCC3)o2)cc1OC`, the AC50 is 0.251 µM [rising, single point].
To `CCOC(=O)CS(=O)(=O)c1nc(-c2ccc(F)cc2)cc(C(F)(F)F)n1` belongs 10 µM [falling, partial curve]; to `O=C(c1ccc(Cl)cc1)c1ccccc1C(=O)N1CCOCC1`, 12.6 µM [falling, partial curve, poor fit].
For `O=C(CN1C(=O)COc2ccccc21)N1CCN(c2ccccc2F)CC1`, the AC50 is 10 µM [falling, partial curve, poor fit].
In the case of `CCCNC(=O)c1c(N)n(-c2cc(OC)cc(OC)c2)c2nc3ccccc3nc12`, the half-maximal activity concentration (AC50) is 12.6 µM [rising, partial curve].
In the case of `N#CCSc1nc2ccccc2c(=O)n1-c1ccccc1`, the AC50 was 12.6 µM [falling, partial curve].
Consider `CCc1nc(SCc2ccccn2)c2c(=O)n(C)c(=O)n(C)c2n1`, for which the AC50 was 2.51 µM [rising, full curve].
In the case of `COc1cc2c(cc1C(F)(F)F)N(C(=O)Nc1cc(F)cc(-c3cccnc3)c1)CC2`, the half-maximal activity concentration (AC50) is 0.794 µM [rising, full curve, poor fit].
In the case of `Cc1cnc(CNc2ncnc3ccc(-c4ccccc4CN(C)C)cc23)cn1`, the AC50 was 3.16 µM [falling, partial curve, poor fit].
Take `COc1ccc(-c2nc3cnc(N4CCNCC4)nc3n(CCC#N)c2=O)cc1`: the half-maximal activity concentration (AC50) is 7.94 µM [rising, partial curve].
The same measure for `N#CCSc1nc2cc(C(=O)N3CCC(C(N)=O)CC3)ccc2c2nc3ccccc3n12`: 1.26 µM [rising, full curve]; for `Cc1cc(C(=O)CSc2nnnn2C)c(C)n1-c1ccc2c(c1)OCCO2`: 0.0158 µM [falling, full curve, poor fit].
To `COc1ccc(C)cc1S(=O)(=O)Nc1cccc(Cl)c1` belongs 0.00398 µM [falling, full curve, poor fit]; to `N=c1n(CCN2CCOCC2)c2ccccc2n1Cc1ccccc1Br`, 2.51 µM [falling, partial curve].
Regarding `Cc1cc(C)c2cc3c(ccn3C3OC[C@H](O)[C@H](O)[C@H]3O)cc2n1` (stereo partly specified), the AC50 was 6.31 µM [falling, partial curve].
As to `Cn1cc(Br)c(C(=O)NC2CCCCC2)n1`, the half-maximal activity concentration (AC50) was 5.01 µM [falling, single point].
`CCc1nc2c(cnn2-c2ccc(Cl)cc2)c(=O)n1-c1ccc2c(c1)OCCO2`: the AC50 is 0.631 µM [falling, partial curve, poor fit].
The same measure for `CC12CN(C(=O)c3ccccc3)C3(C#N)CC1CCC23C` (stereo unspecified): 0.398 µM [rising, full curve, poor fit]; for `Cc1cc(Oc2ccc(-c3ccccc3)cc2)n2ncnc2n1`: 0.398 µM [falling, full curve, poor fit]; for `O=C(Cn1cccc1C(=O)c1ccccc1)NCCN1CCOCC1`: 0.0631 µM [falling, partial curve, poor fit].
Regarding `c1ccc2c(c1)CCCN2Cc1nnnn1CC1CCCO1` (stereo unspecified), the AC50 is 0.01 µM [falling, full curve, poor fit].
Regarding `CCN1C(=O)c2ccc(C(=O)NCc3ccccc3)cc2C1=O`, the AC50 is 12.6 µM [rising, partial curve].
For `CNc1ncnc2ccc(-c3ccccc3C#N)cc12`, the AC50 is 10 µM [rising, partial curve].
On to `CCCCOC(=O)C(C)Nc1n[nH]c(=O)[nH]c1=O` (stereo unspecified), for which the half-maximal activity concentration (AC50) is 15.8 µM [falling, partial curve].
On to `CC(C)(C)c1cc(C(c2cccnc2)N2CCN(CCO)CC2)cc(C(C)(C)C)c1O` (stereo unspecified), for which the half-maximal activity concentration (AC50) was 3.16 µM [falling, single point].
Consider `Cn1c(C(=O)NCCCN2CCCC2=O)cc2c(=O)n3ccccc3nc21`, for which the half-maximal activity concentration (AC50) is 2 µM [rising, partial curve].
Turning to `COC(=O)c1sc(N)c(C(=O)OC)c1COC(=O)C1CC(=O)N(Cc2ccco2)C1` (stereo unspecified), the concentration at half-maximal activity (AC50) is 12.6 µM [rising, partial curve].
Turning to `COc1ccc2nc(SCC(=O)N(C)C3CCCCC3)c(C#N)cc2c1`, the AC50 is 10 µM [rising, partial curve].
`COc1ccc(OC)c(N2C(=O)C(Cl)=C(N3CCCCC3)C2=O)c1`: the AC50 is 5.01 µM [falling, partial curve].
On to `COc1ccc(CCNC(=O)c2ccc3nc(-c4ccco4)c(-c4ccco4)nc3c2)cc1OC`, for which the half-maximal activity concentration (AC50) was 2.51 µM [rising, single point].
Consider `Cc1cc(=O)n2nc(N3CCCC(C(=O)NCc4ccc5c(c4)OCO5)C3)sc2n1` (stereo unspecified), for which the concentration at half-maximal activity (AC50) was 25.1 µM [rising, partial curve, poor fit].
Regarding `O=C1c2cccc3cccc(c23)C(=O)N1c1cccnc1`, the AC50 is 25.1 µM [rising, single point].
With `COc1cc(SC)ccc1C(=O)OC1CCOC1=O` (stereo unspecified), the AC50 is 25.1 µM [falling, single point].
Turning to `Cc1cc(C(F)(F)F)nc(NCc2ccc(F)cc2)n1`, the AC50 was 25.1 µM [rising, single point].
The same measure for `COc1ccc(Cl)cc1NC(=O)CN1CCC(n2nnc3ccccc32)CC1`: 3.98 µM [rising, partial curve].
To `COc1ccc(NC(=O)Cn2nnc(C(=O)NCc3ccccc3OC)c2N)cc1Cl` belongs 10 µM [falling, partial curve]; to `COc1cc(OC)cc(C(=O)Nc2cc(NC(=O)c3ccco3)ccc2OC)c1`, 15.8 µM [rising, single point].
The same measure for `CCN(CC)CCNC(=O)c1cc2c(-c3ccc(Cl)cc3)nn(C)c2s1`: 15.8 µM [rising, single point].
For the compound `Cc1ccc(C)c(N2CCN(C(=O)c3ccc(NS(=O)(=O)c4c(C)noc4C)cc3)CC2)c1`, the concentration at half-maximal activity (AC50) was 12.6 µM [rising, partial curve].
To `COC(=O)c1[nH]c2cc(C)ccc2c1NC(=O)CN1CCc2cc(OC)c(OC)cc2C1` belongs 0.501 µM [rising, full curve, poor fit].
As for `Cc1ccc(C)c(C(=O)CC2(O)C(=O)N(C)c3ccccc32)c1` (stereo unspecified), the AC50 was 0.00316 µM [falling, full curve, poor fit].
Turning to `CCn1c(SC/C=C/c2ccccc2)nnc1-c1cnccn1`, the concentration at half-maximal activity (AC50) was 5.01 µM [rising, single point].
For `O=C(c1cccs1)c1ccc(-c2cccs2)s1`, the AC50 is 10 µM [rising, partial curve].
Turning to `Cc1noc(C)c1S(=O)(=O)NCC(=O)O`, the concentration at half-maximal activity (AC50) was 0.0158 µM [falling, full curve, poor fit].
On to `COc1cccc(NC(=O)c2ccccc2-c2nc(-c3ccc(Cl)cc3)no2)c1`, for which the half-maximal activity concentration (AC50) is 0.126 µM [falling, full curve, poor fit].
Consider `COc1ccc2nc(Nc3ccc4c(c3)OCO4)sc2c1`, for which the AC50 is 12.6 µM [rising, single point].
Turning to `CCN(CCCNC(=O)COc1cc(=O)n(C)c2ccccc12)c1ccccc1`, the AC50 is 10 µM [rising, single point].
For `Cc1c(N=c2c(=O)c3ccccc3c2=O)c(=O)n(-c2ccccc2)n1C`, the AC50 is 15.8 µM [rising, single point].
To `COc1ccc(-c2nnc(CSc3nc4ccccc4c(=O)n3CC(C)C)o2)cc1OC` belongs 3.16 µM [rising, full curve]; to `CCn1cc(C(=O)O)c(=O)c2ccc(Cc3ccccc3)nc21`, 31.6 µM [rising, single point]; to `Cn1c(=O)[nH]c(=O)c2c1nc(N1CCCCCC1)n2CCSc1nc2ccccc2[nH]1`, 20 µM [rising, single point].
For `CCn1c(C)csc1=NC(=O)c1ccccc1`, the half-maximal activity concentration (AC50) is 0.02 µM [falling, full curve, poor fit].
In the case of `CN(C)c1ccc(-c2nc(N(C)Cc3ccco3)c3ccccc3n2)cc1`, the concentration at half-maximal activity (AC50) is 12.6 µM [rising, partial curve].
With `O=C1CSC(c2cccc(F)c2)N1c1ccccc1F` (stereo unspecified), the AC50 is 0.00794 µM [falling, full curve, poor fit].
As to `Cn1ccnc1C[C@@](C)(O)c1ccccc1`, the half-maximal activity concentration (AC50) was 0.158 µM [rising, partial curve].
To `Cc1nc(Nc2ccc3c(c2)OCCO3)c2oc3ccccc3c2n1` belongs 3.16 µM [rising, partial curve]; to `COc1cccc(-n2nnc3c(=O)n(CC(=O)N4CCC(C)CC4)cnc32)c1`, 0.0251 µM [falling, full curve, poor fit]; to `O=C(CSc1nnc2scc(-c3ccccc3)n12)N1CCN(Cc2ccccc2)CC1`, 10 µM [rising, partial curve].
